The list is a part of this screen's results and no random one: it is rich in T/C values a quarter to a half above the control, in often repeated tests (any T/C) and in doses without a T/C. Other doses and runs of a compound stand elsewhere. T/C is the treated group as % of the vehicle group. Some doses have a count of surviving animals in place of a T/C: the source holds a T/C of zero for them, seemingly a mark for toxic or unscored doses. Some survivor counts are full or nearly so, which does not show that the dose was tolerated: the source hardly ever lists a survival T/C far under the control, and the zero likely stands for such cases as well. Counts of survivors are from the toxicity check (mostly the fifth day) where no day follows; animals may have died later. Schedules are NCI's codes, read here as Q, the interval in days (D) or hours (H), X, the number of doses. Some entries hold several experiments; the results are listed from low to high. Some schedules carry Z or #; the key to these is not given. For survival time, the PubChem record calls one and a half times the control and up active, and a quarter to a half above the control has no call in these data; cut-offs in other NCI protocols can differ.
Test system: L1210 leukemia ip in BDF1 mice, survival T/C
Assay: NCI In Vivo Anticancer Drug Screen. Data for tumor model L1210 Leukemia (intraperitoneal) in B6D2F1 (BDF1) mice
Details: T/C endpoint: mean survival time, higher T/C = longer survival
[1] = dose: 400.0 mg/kg/injection, schedule: Q04DX003 (ip), vehicle: saline with Tween-80
[2] = dose: 400.0 mg/kg/injection, schedule: Q01DX001 (ip), vehicle: saline
[3] = dose: 200.0 mg/kg/injection, schedule: Q01DX009 (ip), vehicle: saline
[4] = dose: 400.0 mg/kg/injection, schedule: Q01DX009 (ip), vehicle: saline
[5] = dose: 200.0 mg/kg/injection, schedule: Q01DX009 (ip), vehicle: Klucel (hydroxypropylcellulose) (HPC)
[6] = dose: 400.0 mg/kg/injection, schedule: Q01DX009 (ip), vehicle: Klucel (hydroxypropylcellulose) (HPC)
[7] = dose: 200.0 mg/kg/injection, schedule: Q01DX001 (ip), vehicle: saline

**Q.** Nc1ncnc2c1ncn2C1OC(CO)C(S)C1O (centres undefined) was tested. Which survivor count (dose: 400.0 mg/kg/injection, schedule: Q01DX001 (ip), vehicle: carboxymethylcellulose (CMC)) did it give?
**A.** 0 of 4

**Q.** For [Cl][Pt+2][Cl].[NH-]C(CCCN)C(=O)O.[NH-]C(CCCN)C(=O)O (centres undefined), which survivor count [1] is on record?
**A.** 0 of 6

**Q.** For O=C1CCn2c1c(O)c1ccccc1c2=O, which survivor count [2] is on record?
**A.** 1 of 6

**Q.** For C#CC(OC(=O)NC1CCCCC1)(c1ccccc1)c1ccccc1, which T/C (dose: 25.0 mg/kg/injection, schedule: Q01DX009 (ip), vehicle: saline with Tween-80) is on record?
**A.** 128 % of control

**Q.** And the survivor count (dose: 33.0 mg/kg/injection, schedule: Q01DX009 (ip), vehicle: saline with Tween-80)?
**A.** 6 of 6

**Q.** What about the T/C (dose: 50.0 mg/kg/injection, schedule: Q01DX009 (ip), vehicle: saline sonified) of the same molecule?
**A.** 129 % of control

**Q.** What about the survivor count (dose: 50.0 mg/kg/injection, schedule: Q01DX009 (ip), vehicle: saline with Tween-80) of the same molecule?
**A.** 6 of 6

**Q.** What about the T/C (dose: 50.0 mg/kg/injection, schedule: Q01DX009 (ip), vehicle: saline) of the same molecule?
**A.** 128 % of control

**Q.** What about the survivor count (dose: 75.0 mg/kg/injection, schedule: Q01DX009 (ip), vehicle: saline with Tween-80) of the same molecule?
**A.** 6 of 6

**Q.** What about the T/C (dose: 100.0 mg/kg/injection, schedule: Q01DX009 (ip), vehicle: saline) of the same molecule?
**A.** 144 % of control

**Q.** And the survivor count (dose: 200.0 mg/kg/injection, schedule: Q01DX009 (ip), vehicle: saline sonified)?
**A.** 3 of 6

**Q.** And the survivor count [3]?
**A.** 2 of 6 and 6 of 6

**Q.** And the T/C (dose: 200.0 mg/kg/injection, schedule: Q04DX003 (ip), vehicle: saline sonified)?
**A.** 148 % of control

**Q.** And the survivor count [4]?
**A.** 1 of 6

**Q.** What does the source list for O=C(C=C(C(F)(F)F)C(F)(F)F)/C=C/c1ccccc1?
**A.** survivor count (dose: 6.25 mg/kg/injection, schedule: Q01DX009 (ip), vehicle: other): 3 of 6; survivor count (dose: 12.5 mg/kg/injection, schedule: Q01DX009 (ip), vehicle: other): 1 of 6; survivor count (dose: 25.0 mg/kg/injection, schedule: Q04DX003 (ip), vehicle: other): 4 of 6; survivor count (dose: 50.0 mg/kg/injection, schedule: Q04DX003 (ip), vehicle: other): 3 of 6; survivor count (dose: 100.0 mg/kg/injection, schedule: Q04DX003 (ip), vehicle: other): 6 of 6; survivor count (dose: 200.0 mg/kg/injection, schedule: Q04DX003 (ip), vehicle: other): 5 of 6; survivor count (dose: 400.0 mg/kg/injection, schedule: Q04DX003 (ip), vehicle: other): 0 of 6

**Q.** O=C1c2ccccc2C(=O)N1c1ccc(CBr)cc1 was tested. Which survivor count [5] did it give?
**A.** 1 of 3

**Q.** And the survivor count [6]?
**A.** 2 of 3 and 4 of 6

**Q.** How did the survivor count (dose: 400.0 mg/kg/injection, schedule: Q04DX003 (ip), vehicle: saline) turn out when CC[N+](C)(C)CCOC(=O)C1C2CC3OC(=O)C1C3C2 (centres undefined) was run?
**A.** 0 of 4

**Q.** What does the source list for CC(=O)O[C@@H]1C[C@@]2(C)[C@@H]3CC=C4[C@@H](C[C@H](O)C(=O)C4(C)C)[C@]3(C)C(=O)C[C@]2(C)[C@H]1[C@@](C)(O)C(=O)/C=C/C(C)(C)OC(C)=O?
**A.** survivor count [7]: 1 of 4; survivor count [2]: 1 of 4

**Q.** Which survivor count (dose: 12.0 mg/kg/injection, schedule: Q01DX009 (ip), vehicle: saline with Tween-80) does the source give for C/C(=N/S(=O)(=O)c1ccc(C)cc1)OCCN(C)C here?
**A.** 1 of 6

**Q.** And the survivor count (dose: 12.0 mg/kg/injection, schedule: Q04DX003 (ip), vehicle: saline with Tween-80)?
**A.** 5 of 6

**Q.** What about the survivor count (dose: 25.0 mg/kg/injection, schedule: Q04DX003 (ip), vehicle: saline with Tween-80) of the same molecule?
**A.** 1 of 6

**Q.** What about the survivor count (dose: 50.0 mg/kg/injection, schedule: Q04DX003 (ip), vehicle: saline with Tween-80) of the same molecule?
**A.** 1 of 6

**Q.** What about the survivor count (dose: 100.0 mg/kg/injection, schedule: Q04DX003 (ip), vehicle: saline with Tween-80) of the same molecule?
**A.** 0 of 6

**Q.** What about the survivor count (dose: 200.0 mg/kg/injection, schedule: Q04DX003 (ip), vehicle: saline with Tween-80) of the same molecule?
**A.** 0 of 6

**Q.** What about the survivor count [1] of the same molecule?
**A.** 0 of 6

**Q.** What does the source list for NCCCN=C=NCc1ccccc1?
**A.** survivor count [7]: 0 of 6; survivor count [2]: 0 of 6

**Q.** What does the source list for c1ccc(Nc2ncc3cnccn23)cc1?
**A.** survivor count [3]: 2 of 6; survivor count [4]: 0 of 6

**Q.** Which survivor count (dose: 100.0 mg/kg/injection, schedule: Q01DX001 (ip), vehicle: saline) does the source give for Cc1nccc2c(C(=O)O)c(C(=O)O)[nH]c12 here?
**A.** 1 of 6

**Q.** What about the survivor count [7] of the same molecule?
**A.** 1 of 6

**Q.** What about the survivor count [2] of the same molecule?
**A.** 0 of 6

**Q.** For O=C(COc1ccc(Cl)cc1)Nc1ccccc1C(F)(F)F, which survivor count [5] is on record?
**A.** 5 of 6

**Q.** For Nc1nc2c(ncn2C2CC(CO)C(O)C2O)c(=O)[nH]1 (centres undefined), which survivor count (dose: 19.0 mg/kg/injection, schedule: Q01DX009 (ip), vehicle: other) is on record?
**A.** 5 of 6

**Q.** What about the survivor count (dose: 38.0 mg/kg/injection, schedule: Q01DX009 (ip), vehicle: other) of the same molecule?
**A.** 4 of 5

**Q.** What about the survivor count (dose: 75.0 mg/kg/injection, schedule: Q04DX003 (ip), vehicle: other) of the same molecule?
**A.** 6 of 6

**Q.** What about the survivor count (dose: 150.0 mg/kg/injection, schedule: Q01DX001 (ip), vehicle: other) of the same molecule?
**A.** 6 of 6

**Q.** And the survivor count (dose: 300.0 mg/kg/injection, schedule: Q01DX001 (ip), vehicle: other)?
**A.** 1 of 6

**Q.** What does the source list for OCC1(c2ccccc2)CCCC1(CO)c1ccccc1 (centres undefined)?
**A.** survivor count (dose: 75.0 mg/kg/injection, schedule: Q01DX001 (ip), vehicle: carboxymethylcellulose (CMC)): 3 of 6; survivor count (dose: 150.0 mg/kg/injection, schedule: Q01DX001 (ip), vehicle: carboxymethylcellulose (CMC)): 1 of 6; survivor count (dose: 300.0 mg/kg/injection, schedule: Q01DX001 (ip), vehicle: carboxymethylcellulose (CMC)): 1 of 6

**Q.** With O=P(O)(N(CCCl)CCCl)N1CCN(Cc2ccccc2)CC1 as the molecule, how does the T/C (dose: 300.0 mg/kg/injection, schedule: Q01DX Z (ip), vehicle: other) read?
**A.** 128 % of control

**Q.** Which survivor count (dose: 3.2 mg/kg/injection, schedule: Q01DX Z (ip), vehicle: saline) does the source give for CC1OC2CC(=O)OC2C2=C1C(=O)c1c(O)c3c(c(O)c1C2=O)C1CC(O)C3(O)C(C)O1 (centres undefined) here?
**A.** 6 of 6

**Q.** And the survivor count (dose: 24.0 mg/kg/injection, schedule: Q01DX Z (ip), vehicle: saline)?
**A.** 2 of 6

**Q.** And the survivor count (dose: 48.0 mg/kg/injection, schedule: Q01DX Z (ip), vehicle: saline)?
**A.** 0 of 6

**Q.** And the survivor count (dose: 80.0 mg/kg/injection, schedule: Q01DX001 (ip), vehicle: saline)?
**A.** 0 of 6

**Q.** What about the survivor count (dose: 96.0 mg/kg/injection, schedule: Q01DX Z (ip), vehicle: saline) of the same molecule?
**A.** 0 of 6

**Q.** Which results are given for CCOC(=O)C(=O)C(C#N)C(=O)OCC (centres undefined)?
**A.** survivor count (dose: 150.0 mg/kg/injection, schedule: Q01DX009 (ip), vehicle: saline): 4 of 6; survivor count (dose: 200.0 mg/kg/injection, schedule: Q04DX003 (ip), vehicle: Klucel (hydroxypropylcellulose) (HPC)): 5 of 6; survivor count (dose: 225.0 mg/kg/injection, schedule: Q01DX009 (ip), vehicle: saline): 1 of 6; survivor count (dose: 335.0 mg/kg/injection, schedule: Q01DX009 (ip), vehicle: saline): 0 of 6; survivor count (dose: 400.0 mg/kg/injection, schedule: Q04DX003 (ip), vehicle: Klucel (hydroxypropylcellulose) (HPC)): 4 of 6

**Q.** CCCC(C)OP(=O)(OCC)OCC (centres undefined) was tested. Which survivor count [6] did it give?
**A.** 0 of 6

**Q.** What does the source list for NNC(=O)c1ccc[nH]1?
**A.** survivor count (dose: 150.0 mg/kg/injection, schedule: Q01DX001 (ip), vehicle: saline): 0 of 6; survivor count (dose: 300.0 mg/kg/injection, schedule: Q01DX001 (ip), vehicle: saline): 0 of 6

**Q.** Which survivor count [7] does the source give for C/C(=N\N=C(/C)c1ccc(N)cc1)c1ccc(N)cc1 here?
**A.** 6 of 6

Reference: PubChem BioAssay AID248 (DTP/NCI, 2004)
